Measured values as given in publication PMC11119796.
These are yes or no findings as the source states them, for the method shown. In cells and extracts the contact can be indirect. Some entries that bind do so weakly or less than the wild type. For some assays here: Tags and fused reporters may be left off the sequences shown. Values belong to the binder of their own block, whether it stands above or below them.

The chains behind the UniProt entries cited, without tags or fusion partners.
UniProt P52480: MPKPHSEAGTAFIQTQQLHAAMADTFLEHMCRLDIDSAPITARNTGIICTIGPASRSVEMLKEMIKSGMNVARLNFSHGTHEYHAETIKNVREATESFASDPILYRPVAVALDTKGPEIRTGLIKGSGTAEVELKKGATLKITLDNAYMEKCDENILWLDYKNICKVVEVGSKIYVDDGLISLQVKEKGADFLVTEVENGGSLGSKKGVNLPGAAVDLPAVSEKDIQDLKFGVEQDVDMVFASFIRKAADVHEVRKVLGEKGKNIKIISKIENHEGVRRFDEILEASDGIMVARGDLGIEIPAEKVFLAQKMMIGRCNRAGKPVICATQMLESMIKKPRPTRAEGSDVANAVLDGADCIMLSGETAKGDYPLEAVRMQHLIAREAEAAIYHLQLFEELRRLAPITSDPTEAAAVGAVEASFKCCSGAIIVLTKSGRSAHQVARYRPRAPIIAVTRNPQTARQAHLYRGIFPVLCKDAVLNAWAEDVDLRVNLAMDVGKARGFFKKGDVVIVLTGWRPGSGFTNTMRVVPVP

Tests used:
[1] = molecular target: PKM2-Flag (pyruvate kinase isozyme M2, Flag-tagged) (UniProt P52480); assay: co-IP; HEK293T cells transfected with ISLR-GFP and PKM2-Flag, cultured 2 d; Flag antibody or ISLR antibody as the bait; Western blot; also under H2O2 treatment (Figure S3A)
[2] = molecular target: Pkm2-3×Flag (UniProt P52480); assay: co-IP; HEK293T cells expressing Pkm2-3×Flag with or without ISLR overexpression, cultured 2 d, then 7 μM H2O2 for 3 h; FLAG antibody as the bait; Western blot of endogenous PKM2

- binding [1]: binds
B1: ISLR-GFP (immunoglobulin superfamily containing leucine-rich repeat, GFP-tagged) (protein, UniProt Q6GU68 19-428)
chain: CPEPCDCGEKYGFQIADCAYRDLEGVPPGFPANVTTLSLSANRLPGLPEGAFREVPLLQSLWLAHNEIRSVAIGALAPLSHLKSLDLSHNLLSEFAWSDLHNLSALQLLKMDSNELAFIPRDAFSSLSALRSLQLNHNRLHALAEGTFAPLTALSHLQINDNPFDCTCGIVWFKTWALASAVSIPEQDNIACTTPHVLKGIPLGRLPPLPCSAPSVQLSYQPSQDGAELRPGFVLALHCDVDGQPVPQLHWHIHTPGGTVEIASPNVGTDGRALPGALATSGQPRFQAFANGSLLIPDFGKLEEGTYSCLATNELGSAESSVNVALATPGEGGEDAVGHKFHGKAVEGKGCYTVDNEVQPSGPEDNVVIIYLSRAGPPEAAIAADGRPAQQFSGILLLGQSLLVLSFFYF

- binding [2]: binds
B2: ISLR (construct not stated) (protein, UniProt Q6GU68 19-428)
chain: B1 chain
